The test in a line: qHTS Assay for Lipid Storage Modulators in Drosophila S3 Cells.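 For cell number change: cells counted by Cell Tracker Red CMTPX staining in the red channel.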 As to conditions: BODIPY lipid droplet fluorescence, 18-24 h; for cell number change: measured here: cell count max response, cells fed with added oleic acid. In outline: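 Drosophila S3 cells loaded with oleic acid (400 uM, as added) and compounds at several concentrations; lipid droplets imaged by 488-nm laser-scanning cytometry, 500–530 nm intensity and object ratio to cell channel. Percent activity normalized to 20 uM Triacsin C.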
A general note: Quantitative high-throughput screening tests each substance at several concentrations.

The mark [1] stands for this setting: measured here: lipid fluorescence (Fed channel) AC50, cells fed with added oleic acid.
Setting [2] is: measured here: cell number channel AC50, cells fed with added oleic acid.

The other results are listed elsewhere or left out. These are further read-outs of the screen, such as a control signal, another cell line or another target. No call is given for them. Most of these compounds were active or inconclusive in the main read-out, so they are no random draw. Potencies come from curve fits of mixed quality, noted in brackets.

By AC50 is commonly meant the midpoint of the concentration-response curve, whichever way the signal moves. Read a high AC50 as activity only at high concentration. In the case of `CCN1CCN(C(=O)C2CCC(CNS(=O)(=O)c3ccccc3)CC2)CC1` (stereo not drawn), the cell number change is -5.04%. Besides, under setting [1], the AC50 is 1.84 µM [falling, partial curve]. Consider `O=C(O)c1cc([N+](=O)[O-])cc2c1C=Cc1ccccc1O2`, for which the cell number change is 1.06%. For the same molecule, the half-maximal activity concentration (AC50) under setting [1] is 29.1 µM [rising, single point]. Take `COc1ccccc1-c1sc2ccccc2c1-c1ccc2c(c1)OCCO2`: the cell number change turned out to be 17.6%. Moreover, the AC50 under setting [1] is 0.411 µM [rising, partial curve]. Consider `Cc1cc(NC(=O)CN2CCCCC2)no1`, for which the cell number change is 1.43%. Also, under setting [2], the AC50 was 6.51 µM [falling, partial curve, poor fit].

Turning to `COc1ccc(N2CCN(C3CCCCC3NS(=O)(=O)c3ccc(Cl)cc3)CC2)cc1` (stereo not drawn), the cell number change was -0.951%. For the same molecule, the AC50 under setting [1] is 0.58 µM [falling, single point]. As for `COc1ccc(C)cc1NC(=O)C1CCN(S(=O)(=O)c2cccs2)CC1`, the cell number change was 8.11%. Take `CN(C)S(=O)(=O)c1cc(S(=O)(=O)N(C)C)c(Cl)cc1N`: the cell number change was 1.67%. Regarding `Brc1cnc2nc[nH]c2c1`, the cell number change is -17.5%. Also, the AC50 under setting [1] was 5.8 µM [falling, full curve].

On to `CCCCn1c(=O)[nH]c(=O)c2c1nc(Cn1ncc(Cl)c(Cl)c1=O)n2CCC`, for which the AC50 under setting [1] is 8.2 µM [falling, partial curve]. Turning to `COc1ccc(OC)c(N(C(=O)c2snc(C(N)=O)c2N)C(C(=O)NCC2CCCO2)c2ccc3ncccc3c2)c1` (stereo not drawn), the cell number change worked out at 26.7%. Besides, under setting [2], the AC50 was 3.26 µM [rising, full curve, poor fit].

In the case of `CCOc1ccccc1/C=N/n1c(C)nc2ccccc2c1=O`, the AC50 under setting [2] was 1.46 µM [rising, partial curve]. For the molecule `CCC(=O)Nc1cccc(C(=O)N(Cc2ccccc2)Cc2ccccc2)c1`, the cell number change is -15.8%. As for `CCOC(=O)N1CCN(C(=O)/C(=C/c2ccccc2OC)NC(=O)c2ccccc2)CC1`, the AC50 under setting [1] was 0.58 µM [rising, single point].

Turning to `O=S(=O)(/C=C/c1ccccc1)Nc1cccc(S(=O)(=O)NC2=NCCC2)c1`, the cell number change is 21.2%. In the case of `C=CCNc1nc(-c2ccc([N+](=O)[O-])cc2)cs1`, the cell number change came to 9.43%. In addition, the AC50 under setting [1] was 0.0058 µM [falling, full curve, poor fit]. On to `CCOC(=O)c1[nH]c2ccc(F)cc2c1NC(=O)c1cc(OC)c(OC)c(OC)c1`, for which the AC50 under setting [1] is 0.13 µM [rising, full curve, poor fit]. Consider `c1ccc(-c2ccccc2OCCCN2CCCCCC2)cc1`, for which the cell number change is -25.4%. Under setting [1], the half-maximal activity concentration (AC50) is 29.1 µM [falling, single point].

As for `Cc1ccc(-n2[nH]c(C)c(/C=N/NC(=O)c3ccc(O)cc3O)c2=O)cc1`, the cell number change stood at 74.8%. Moreover, the AC50 under setting [2] is 2.31 µM [rising, partial curve]. The AC50 under setting [1] is 11.6 µM [rising, single point]. With `CCOc1cc(-c2nc3cc(C)ccn3c2NCC2CCCO2)ccc1O` (stereo not drawn), the cell number change worked out at 7.62%. Under setting [1], the AC50 was 0.291 µM [rising, single point]. As for `O=C(CNC(=S)N(Cc1ccccc1F)C1CCCCC1)NC1CC1`, the cell number change is 33%. Under setting [2], the AC50 is 29.1 µM [rising, single point]. For the same molecule, the AC50 under setting [1] is 29.1 µM [rising, single point]. Turning to `CCOC(=O)N1CC=C2C(C#N)=C(N)C(C#N)(C#N)[C@H](c3cccs3)[C@H]2C1`, the AC50 under setting [1] is 0.58 µM [rising, single point].

Take `Cc1ccc(C)c(N2C(=O)CC(Cc3ccc(Br)cc3)C2=O)c1` (stereo not drawn): the cell number change was -27.7%. The AC50 under setting [1] is 6.51 µM [falling, single point]. On to `NC(=S)N/N=C/C=C/c1ccccc1`, for which the cell number change is -2.25%. Also, under setting [2], the AC50 is 0.58 µM [rising, single point]. Regarding `CSCCC(NC(=O)c1ccc(Cl)cc1Cl)C(=O)OC1CCCCC1=O` (stereo not drawn), the cell number change turned out to be 12.5%. The AC50 under setting [2] is 0.103 µM [falling, full curve, poor fit].

`CCn1cc(/C=N\NC(=O)c2ccccc2Cl)cn1`: the cell number change is -1.38%. Also, the AC50 under setting [1] is 29.1 µM [falling, single point].

With `CC1CN(C(=O)CN2C(=O)NC3(CCCCCCC3)C2=O)CC(C)O1` (stereo not drawn), the AC50 runs as follows: under setting [2], 3.26 µM [rising, single point]; under setting [1], 20.6 µM [rising, partial curve]. Consider `O=C(O)c1c(N2CCCCC2)ccc([N+](=O)[O-])c1N1CCCCC1`, for which the cell number change is 24.4%. For `CC(=O)Nc1nc(C)c(S(N)(=O)=O)s1`, the cell number change came to 2.52%. Under setting [2], the AC50 was 6.51 µM [falling, single point]. For `CCCC[C@H]1COCCS(=O)(=O)N1Cc1ccc(F)cc1`, the cell number change is 6.59%.

On to `CN(c1ccccc1)S(=O)(=O)c1ccc(Cl)c(C(=O)Nc2ccccc2N2CCOCC2)c1`, for which the cell number change amounted to 49%. The AC50 under setting [2] was 4.11 µM [rising, full curve]. With `Nc1nc(SCC(=O)NC2CCCCCC2)[nH]c(=O)c1-c1ccccc1`, the cell number change amounted to 21.8%. Besides, the AC50 under setting [1] is 0.259 µM [falling, full curve].

With `COc1ccccc1C(=O)COC(=O)c1cccc(S(=O)(=O)N2CCCC2)c1`, the cell number change was -37.6%. Besides, the AC50 under setting [2] is 29.1 µM [falling, single point].

For `Cc1ccc(S(=O)(=O)N(C)C)cc1NC(=O)COC(=O)C1COc2ccccc2O1` (stereo not drawn), the cell number change worked out at 42.6%. The AC50 under setting [1] was 23.1 µM [rising, single point]. In the case of `O=C(C(c1ccccc1)c1ccccc1)N1CCN(Cc2ccncc2)CC1`, the cell number change was -20.1%. Turning to `Cc1cc(C)n2ncnc2n1`, the cell number change amounted to 14.1%. Also, the AC50 under setting [1] is 5.17 µM [rising, single point]. As to `CN(Cc1ccon1)C(=O)CC1C(=O)NCCN1Cc1cccc(F)c1F` (stereo not drawn), the cell number change was -0.587%. Regarding `O=C1CC(C(=O)O)S/C(=N\NC(=O)c2ccccc2)N1` (stereo not drawn), the cell number change was -97.3%. In addition, the AC50 under setting [2] was 25.9 µM [falling, partial curve]. Under setting [1], the AC50 is 23.1 µM [falling, partial curve].

For the molecule `COC(=O)c1c(C(=O)OC)c(C)n(Cc2cccnc2)c1C`, the cell number change worked out at 11.4%. For the molecule `COC(=O)c1cc(CSc2nc3ccccc3[nH]2)oc1C`, the cell number change came out at 9.66%. In addition, the AC50 under setting [2] was 0.651 µM [rising, full curve, poor fit]. In addition, the AC50 under setting [1] was 1.84 µM [rising, partial curve]. For the molecule `COc1cc2ccccc2cc1C(=O)Nc1sc2c(c1C(N)=O)CCN(C(C)C)C2`, the cell number change was -44.8%. For the same molecule, the AC50 under setting [2] was 13 µM [falling, single point]. Also, under setting [1], the AC50 is 20.6 µM [falling, partial curve].

In the case of `CCOc1ccc(NC(=O)NCc2ccccn2)cc1`, the cell number change is -16.3%. For the same molecule, the AC50 under setting [1] was 29.1 µM [rising, single point].
